From US20220041691A1, “METHODS FOR DIAGNOSING OR TREATING POST-TRAUMATIC STRESS DISORDER, AND COMPOSITIONS THEREFOR” (Centre for Addiction and Mental Health, priority 2018, published 2022)
No constants are given. Whether binding was seen depends on the method and setting. Binding seen in cells or lysates may run through a third protein. Some binding calls cover weakened binding; strength is not graded here. Where a sequence is shown, tags or fusion partners need not be part of it.

The chains behind the UniProt entries cited, without tags or fusion partners. Where a name states a change or a piece, a line headed by the entry shows the natural chain unless it says otherwise.
UniProt P06537: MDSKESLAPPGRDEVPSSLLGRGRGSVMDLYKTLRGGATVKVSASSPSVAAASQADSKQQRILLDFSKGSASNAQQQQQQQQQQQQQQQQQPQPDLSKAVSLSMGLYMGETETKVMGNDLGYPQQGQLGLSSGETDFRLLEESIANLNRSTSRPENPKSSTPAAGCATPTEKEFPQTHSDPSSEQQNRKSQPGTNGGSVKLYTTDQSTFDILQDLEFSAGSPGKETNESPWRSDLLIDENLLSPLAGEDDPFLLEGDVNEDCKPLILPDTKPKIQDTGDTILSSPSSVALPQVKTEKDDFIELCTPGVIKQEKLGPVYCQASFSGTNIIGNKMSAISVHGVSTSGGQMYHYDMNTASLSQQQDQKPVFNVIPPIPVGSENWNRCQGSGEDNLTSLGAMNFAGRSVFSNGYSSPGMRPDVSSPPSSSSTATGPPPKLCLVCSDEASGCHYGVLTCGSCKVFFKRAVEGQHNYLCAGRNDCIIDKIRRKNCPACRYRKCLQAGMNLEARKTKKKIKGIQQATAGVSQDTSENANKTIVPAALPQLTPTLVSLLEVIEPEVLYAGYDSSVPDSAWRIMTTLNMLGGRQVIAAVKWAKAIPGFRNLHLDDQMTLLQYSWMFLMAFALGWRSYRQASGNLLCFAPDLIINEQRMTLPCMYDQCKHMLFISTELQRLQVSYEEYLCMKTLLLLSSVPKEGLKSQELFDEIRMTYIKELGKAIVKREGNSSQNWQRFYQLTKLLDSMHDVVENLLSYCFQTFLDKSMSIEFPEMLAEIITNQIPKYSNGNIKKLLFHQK
UniProt P04150: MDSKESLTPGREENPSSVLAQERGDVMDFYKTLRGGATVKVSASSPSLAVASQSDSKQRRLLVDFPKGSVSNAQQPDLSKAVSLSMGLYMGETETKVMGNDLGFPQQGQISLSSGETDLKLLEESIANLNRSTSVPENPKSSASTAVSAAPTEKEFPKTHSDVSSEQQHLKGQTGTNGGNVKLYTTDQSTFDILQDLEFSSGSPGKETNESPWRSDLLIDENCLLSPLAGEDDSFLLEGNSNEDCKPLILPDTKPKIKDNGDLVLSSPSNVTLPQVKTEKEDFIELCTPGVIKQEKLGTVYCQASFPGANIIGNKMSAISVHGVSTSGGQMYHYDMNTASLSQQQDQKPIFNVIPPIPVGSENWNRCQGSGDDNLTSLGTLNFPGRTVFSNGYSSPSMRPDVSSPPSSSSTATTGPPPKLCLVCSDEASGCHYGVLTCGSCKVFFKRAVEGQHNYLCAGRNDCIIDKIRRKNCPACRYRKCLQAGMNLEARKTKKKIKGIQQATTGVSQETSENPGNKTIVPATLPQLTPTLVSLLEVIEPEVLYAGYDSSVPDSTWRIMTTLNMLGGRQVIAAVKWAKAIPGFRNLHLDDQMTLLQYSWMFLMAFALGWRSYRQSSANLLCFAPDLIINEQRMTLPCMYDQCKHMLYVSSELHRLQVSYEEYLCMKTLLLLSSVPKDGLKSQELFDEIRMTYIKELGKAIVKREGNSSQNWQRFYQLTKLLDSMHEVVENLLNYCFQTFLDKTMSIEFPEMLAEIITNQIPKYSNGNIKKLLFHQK

T1: GFP-FKBP51 (Homo sapiens (Human)) (UniProt Q13451)
T1 sequence: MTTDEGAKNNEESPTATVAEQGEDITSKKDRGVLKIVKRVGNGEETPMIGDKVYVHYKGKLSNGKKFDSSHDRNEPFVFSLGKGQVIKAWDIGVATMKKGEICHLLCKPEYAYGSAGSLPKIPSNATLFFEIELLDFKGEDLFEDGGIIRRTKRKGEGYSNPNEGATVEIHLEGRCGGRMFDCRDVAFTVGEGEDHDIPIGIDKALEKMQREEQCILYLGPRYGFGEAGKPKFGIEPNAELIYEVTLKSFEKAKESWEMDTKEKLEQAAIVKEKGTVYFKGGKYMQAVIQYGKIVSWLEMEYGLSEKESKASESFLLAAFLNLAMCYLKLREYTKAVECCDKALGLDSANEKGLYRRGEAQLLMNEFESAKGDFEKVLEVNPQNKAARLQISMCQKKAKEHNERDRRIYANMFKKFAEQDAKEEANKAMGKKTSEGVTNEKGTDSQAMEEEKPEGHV


Experiments:
[1] = biological target: T1, GFP-FKBP51 (Homo sapiens (Human)); experiment: co-immunoprecipitation of Flag-GR with GFP-FKBP51 in transfected HEK293T cells
[2] = biological target: glucocorticoid receptor (GR), endogenous, mouse brain / mouse lymphocyte lysate (mouse) (UniProt P06537); experiment: GST pull-down from mouse brain tissue, Western blot

binding [1]	binding [2]	Molecule
binds		Flag-tagged GR, wild-type (from UniProt P04150 1-777) (receptor)
binds		Flag-tagged GR S211A mutant (non-phosphorylated GR mutant) (from UniProt P04150 1-777) (receptor)

Continued, molecule first:

Molecule	binding [1]	binding [2]
Flag-tagged GR S211E mutant (phosphomimetic GR mutant) (from UniProt P04150 1-777) (receptor)	binds	
GEAQLLMNEFESAKGDFEKVLEVNPQNKAARLQISMCQKKAKEHNERDRR (peptide, not shown: a dimerising Fc or GST) [GST-TPR3]		binds
GST-FKBP51_TPR (GST fusion of the tetratricopeptide repeat domain of FKBP51) (other, also called GST-TPR; FKBP51 TPR domain; not shown: glutathione S-transferase (GST) tag; vector stated only for the GR fragments (pGEX-4T3)) EMDTKEKLEQAAIVKEKGTVYFKGGKYMQAVIQYGKIVSWLEMEYGLSEKESKASESFLLAAFLNLAMCYLKLREYTKAVECCDKALGLDSANEKGLYRRGEAQLLMNEFESAKGDFEKVLEVNPQNKAARLQISMCQKKAKEHNERDRRIYANMFKKFAEQDAKEEANKAMGKKTSEGVTNEKGTDSQAMEEEKPEGHV		binds
